± gives the standard deviation of the averaged measurements. Whole data set: some 1,600 compounds, median “normalized growth (OD600, IQM-normalized) in LPM” near 1, cut for the lowest 2% near 0.014. The list shows a part of the results.

The subject of this assay is Salmonella enterica serovar Typhimurium SL1344. The experiment in a line: normalized growth (OD600, IQM-normalized) in LPM (fraction of plate interquartile mean); higher = more bacterial growth (less inhibition). Conditions: LPM pH 5.8; 10 µM; 16 h.
`Cc1ccc(Cl)c(Nc2ccccc2C(=O)O)c1Cl` registered a normalized growth of 2.25 ± 0.16.
Next, `C[C@H]1C[C@H]2[C@@H]3CCC4=CC(=O)C=C[C@]4(C)[C@@]3(F)[C@@H](O)C[C@]2(C)[C@@]1(O)C(=O)CO`: 1.01 ± 0.065; `Oc1ccc(OCc2ccccc2)cc1`: 0.91 ± 0.11.
For `CCCCNc1ccc(C(=O)OCCOCCOCCOCCOCCOCCOCCOCCOCCOC)cc1` the value was 1.2 ± 0.11; for `CC(C)(Oc1ccc(C(=O)c2ccc(Cl)cc2)cc1)C(=O)O`, 0.976 ± 0.024.
For `Cc1cc(/C=C/c2ccc3cc(N(C)C)ccc3[n+]2C)c(C)n1-c1ccccc1` the value was 0.928 ± 0.037; for `CCn1nc(C(=O)O)c(=O)c2cc3c(cc21)OCO3`, 0.00789 ± 0.00035.
Take `Cc1nc2ccccc2n1Cc1ccc(Cl)cc1`: the normalized growth came to 0.912 ± 0.027.
In turn, `Cc1cc(=O)oc2cc(O)ccc12` returned a normalized growth of 0.995 ± 0.025.
For `OC[C@H]1O[C@H]([S-])[C@H](O)[C@@H](O)[C@@H]1O.[Au+]` the value was 0.774 ± 0.031.
Regarding `O=C(NCc1ccccc1)OCCO`, the normalized growth came to 0.961 ± 0.11.
In turn, `CC(=O)c1ccc(S(=O)(=O)NC(=O)NC2CCCCC2)cc1` yielded a normalized growth of 0.812 ± 0.017.
As to `CCCNC(C)C(=O)Nc1ccccc1C` (stereo not drawn), the normalized growth came out at 0.972 ± 0.027.
Next, `COc1ccc(CN(CCN(C)C)c2ccccn2)cc1`: 1.07 ± 0.022; `Nc1ncn([C@@H]2O[C@H](CO)[C@@H](O)[C@H]2O)c(=O)n1`: 0.0134 ± 0.00024; `CC(COc1ccccc1)N(CCCl)Cc1ccccc1` (stereo not drawn): 0.952 ± 0.028.
As for `Cc1scc2c1N(C(=O)CN1CCN(C)CC1)c1ccccc1NC2=O`, the normalized growth worked out at 0.966 ± 0.057.
On to `C=C1c2cccc(O)c2C(=O)C2=C(O)[C@]3(O)C(=O)C(C(N)=O)=C(O)[C@@H](N(C)C)[C@@H]3[C@@H](O)[C@H]12`, for which the normalized growth is 0.0154 ± 0.00028.
For `c1ccc(C2CN3CCSC3=N2)cc1` (stereo not drawn) the value was 1.08 ± 0.021; for `C[C@]12CCC(=O)C=C1CC[C@@H]1[C@@H]2[C@@H](O)C[C@@]2(C)[C@H]1CC[C@]2(O)C(=O)COC(=O)CCC(=O)O`, 0.929 ± 0.04; for `CC(C)(C)NC[C@H](O)COc1nsnc1N1CCOCC1`, 1.2 ± 0.005.
For `NCCCC[C@H](N[C@@H](CCc1ccccc1)C(=O)O)C(=O)N1CCC[C@H]1C(=O)O` the value was 0.96 ± 0.048; for `CO/N=C(\C(=O)N[C@@H]1C(=O)N2C(C(=O)O)=C(CSc3nc(=O)c(O)nn3C)CS[C@H]12)c1csc(N)n1`, 0.0987 ± 0.025.
Next, `CCOC(=O)OC(C)OC(=O)[C@@H]1N2C(=O)[C@@H](NC(=O)[C@H](N)c3ccccc3)[C@H]2SC1(C)C` (stereo partly drawn): 1.02 ± 0.022; `COC1=C(OC)C(=O)C(CCCCCCCCCCO)=C(C)C1=O`: 0.998 ± 0.021.
As for `CCOC(=O)[C@H](CCc1ccccc1)N[C@H]1CCc2ccccc2N(CC(=O)O)C1=O`, the normalized growth stood at 0.827 ± 0.067.
Next, `CC(=O)N[C@@H](CC(C)C)C(=O)O`: 1.1 ± 0.047; `Nc1nc(=O)c2nc(CNc3ccc(C(=O)N[C@@H](CCC(=O)O)C(=O)O)cc3)cnc2[nH]1`: 0.903 ± 0.031.

Values taken from the supplement of paper PMC6331611.
